The target in series [1] is T1, NBD (nonamer binding domain of RAG1) (mouse) (UniProt P15919).
T1 sequence (looked up): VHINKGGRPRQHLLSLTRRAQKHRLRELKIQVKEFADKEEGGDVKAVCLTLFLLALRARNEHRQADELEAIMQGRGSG
The series can be described thus: EMSA. The following applies: 5 mM Ca2+, NBD EMSA: 10 mM Tris-HCl pH 7.5, 33 mM KCl, 5 mM CaCl2, 2 mM DTT, 0.1 mg/ml BSA, 6% glycerol, 15 min 30 C, recombinant protein, residues 384-461, protein details: N-terminal His6 (pET28a). (In general: A gel shift assay detects complexes by their altered migration in electrophoresis.)

In series [2] the test system is MBP-cRAG1 (core RAG1) + cRAG2 (core RAG2). Briefly: EMSA. To be noted: cRAG buffer, NBD EMSA: 10 mM Tris-HCl pH 7.5, 33 mM KCl, 5 mM CaCl2, 2 mM DTT, 0.1 mg/ml BSA, 6% glycerol, 15 min 30 C, recombinant protein, protein details: MBP,MBP.
Series [3] addresses T1, NBD (nonamer binding domain of RAG1) (mouse). The series can be described thus: BLI. The following applies: 1x PBS, 30 C, 1:1 fit, BLI: 1x PBS, recombinant protein, residues 384-461, protein details: N-terminal His6 (pET28a).
Where [4] appears, read: label: 5' 32P, single-stranded DNA.

Among the data in paper PMC4705477, “Biochemical Characterization of Nonamer Binding Domain of RAG1 Reveals its Thymine Preference with Respect to Length and Position” are binding result and Kd values, retold here.

For some of these results: No signal at the amounts used counts as a negative. For some of these results: At least one verdict was read from the data and is not stated in words by the source. For some of these results: Where a protein sequence is shown, tags need not be part of it. For some of these results: A weaker result is weaker than the reference pair of the same experiment. Construct, isoform or probe ends are uncertain for at least one entry.

“AAAAAAAAAAAAAAAAAAAAAAAAAAAAAAAAAAA [ss poly A 35 (IX, MS5)]”: the binding result in series [1] (setting [4]) and in series [2] (setting [4]) was “no binding” in each case.
“GACCTGAGGGCGAGCTTTTTTCGAGTAACTTAACAG [XXXIV, 6 T in centre (AKN11)]”: in series [1] (setting [4]), the binding result is “binds more weakly”.
For the sequence “GAGACTGATCTTACCTCTTAACTACTTTTTGACAC [XXXII, internal T stretch (MS25)]”, in series [1] (setting [4]), the binding result is “binds more weakly”.
In the case of “GAGTCTGATCTTACCTCTTAACTTCGCTACCATTT [XXXVI, 3 T at 3' end (DR62)]”, in series [1] (setting [4]), the binding result was “binds more weakly”.
Consider “GAGTCTGATCTTACCTCTTAACTTCGCTACCTTTT [XXXV, 4 T at 3' end (DR61)]”, for which the binding result in series [1] (setting [4]) is “binds more weakly”.
Broadly, the Kd is the concentration at which binding is half-saturated. As for “GATCAGCTGATAGCTACCACAGTGCTACAGACTGGAACAAAAACCCTGCT / TAGCAGGGTTTTTGTTCCAGTCTGTAGCACTGTGGTAGCTATCAGCTGAT [biotinylated 12RSS (50 bp)]”, the dissociation constant (Kd) in series [3] came to 4.02 µM.
As for “TAGCAGGGTTTTTGTTCCAGTCTGTAGCACTGTGGTAGCTATCAGCTGAT [XXVI, 50 nt ssDNA with 5 internal T (AKN2)]”, the binding result in series [1] (setting [4]) is reported as “no binding”.
As to “TTTTTTTTTTTTTTTTTTTTTTTTTTTTTTTTTTT (double strand) [ds A/T 35 bp (XIII, MS3/MS5)]”, the binding result in series [1] (label: 5' 32P on MS3) is given as “binds”; in series [2] (much less than 12RSS, label: 5' 32P on MS3), “binds more weakly”.
